PMC6147947
No constants are given. Whether binding was seen depends on the method and setting. In cells and extracts the contact can be indirect. Some results given as binding are weak or reduced against the parent protein; the word gives no strength.

Amino acid sequences for entries named in this document (tags omitted).
UniProt Q9ESK9: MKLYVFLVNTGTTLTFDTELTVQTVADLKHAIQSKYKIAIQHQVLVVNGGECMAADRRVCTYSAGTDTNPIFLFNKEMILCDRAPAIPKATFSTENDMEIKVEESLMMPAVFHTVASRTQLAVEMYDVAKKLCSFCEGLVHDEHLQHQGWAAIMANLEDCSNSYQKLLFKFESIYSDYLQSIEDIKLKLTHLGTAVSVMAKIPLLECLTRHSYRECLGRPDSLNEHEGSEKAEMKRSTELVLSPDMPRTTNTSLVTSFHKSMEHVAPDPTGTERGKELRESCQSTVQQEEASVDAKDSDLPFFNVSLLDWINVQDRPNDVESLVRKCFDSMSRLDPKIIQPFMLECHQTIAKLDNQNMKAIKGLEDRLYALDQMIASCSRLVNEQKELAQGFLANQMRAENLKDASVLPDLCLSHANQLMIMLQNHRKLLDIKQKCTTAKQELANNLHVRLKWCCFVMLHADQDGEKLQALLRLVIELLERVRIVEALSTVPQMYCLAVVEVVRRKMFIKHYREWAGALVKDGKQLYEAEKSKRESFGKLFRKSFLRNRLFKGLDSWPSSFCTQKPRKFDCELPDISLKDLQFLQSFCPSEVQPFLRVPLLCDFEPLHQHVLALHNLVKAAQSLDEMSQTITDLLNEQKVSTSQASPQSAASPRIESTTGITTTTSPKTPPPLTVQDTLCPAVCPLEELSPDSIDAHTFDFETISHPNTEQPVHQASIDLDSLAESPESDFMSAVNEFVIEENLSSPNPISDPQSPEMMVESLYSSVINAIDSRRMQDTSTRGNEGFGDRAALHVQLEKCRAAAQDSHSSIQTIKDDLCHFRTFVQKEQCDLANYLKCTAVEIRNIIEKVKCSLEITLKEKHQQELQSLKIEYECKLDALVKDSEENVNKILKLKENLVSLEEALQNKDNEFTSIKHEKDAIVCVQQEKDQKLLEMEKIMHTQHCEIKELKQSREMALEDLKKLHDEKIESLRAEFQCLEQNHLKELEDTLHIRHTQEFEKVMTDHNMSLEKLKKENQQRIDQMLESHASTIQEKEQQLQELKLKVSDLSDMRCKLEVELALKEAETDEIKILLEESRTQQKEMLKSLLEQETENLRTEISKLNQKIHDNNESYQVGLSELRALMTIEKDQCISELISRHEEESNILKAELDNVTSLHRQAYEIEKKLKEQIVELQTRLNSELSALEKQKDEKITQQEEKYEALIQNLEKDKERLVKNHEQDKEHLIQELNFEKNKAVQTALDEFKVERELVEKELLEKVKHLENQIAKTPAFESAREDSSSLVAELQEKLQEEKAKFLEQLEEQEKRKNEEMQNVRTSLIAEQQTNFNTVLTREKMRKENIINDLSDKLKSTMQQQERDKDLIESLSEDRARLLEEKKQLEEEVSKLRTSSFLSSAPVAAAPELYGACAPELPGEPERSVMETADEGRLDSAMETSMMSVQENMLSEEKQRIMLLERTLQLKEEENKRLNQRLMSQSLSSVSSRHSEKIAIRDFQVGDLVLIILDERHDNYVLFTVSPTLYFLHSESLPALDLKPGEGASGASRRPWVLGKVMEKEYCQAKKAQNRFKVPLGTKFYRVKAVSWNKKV

Target: retinoblastoma coiled coil protein 1 (RB1CC1) (mouse (endogenous in mouse PSCs)) (UniProt Q9ESK9)
Experiment: co-IP; PSC lysates (1 x 10^7 cells; 100 mM KCl, 5 mM MgCl2, 10 mM Hepes pH 7.0, 0.5% NP-40, 1 mM DTT) incubated with 5 ug anti-RB1CC1, anti-ULK1 or isotype control IgG at 4 C overnight, protein A/G agarose beads, western blot

- binding: binds
B1: ULK1 (protein, UniProt O70405 1-1051)
chain: MEPGRGGVETVGKFEFSRKDLIGHGAFAVVFKGRHREKHDLEVAVKCINKKNLAKSQTLLGKEIKILKELKHENIVALYDFQEMANSVYLVMEYCNGGDLADYLHTMRTLSEDTVRLFLQQIAGAMRLLHSKGIIHRDLKPQNILLSNPGGRRANPSNIRVKIADFGFARYLQSNMMAATLCGSPMYMAPEVIMSQHYDGKADLWSIGTIVYQCLTGKAPFQASSPQDLRLFYEKNKTLVPAIPRETSAPLRQLLLALLQRNHKDRMDFDEFFHHPFLDASTPIKKSPPVPVPSYPSSGSGSSSSSSSASHLASPPSLGEMPQLQKTLTSPADAAGFLQGSRDSGGSSKDSCDTDDFVMVPAQFPGDLVAEAASAKPPPDSLLCSGSSLVASAGLESHGRTPSPSPTCSSSPSPSGRPGPFSSNRYGASVPIPVPTQVHNYQRIEQNLQSPTQQQTARSSAIRRSGSTTPLGFGRASPSPPSHTDGAMLARKLSLGGGRPYTPSPQVGTIPERPSWSRVPSPQGADVRVGRSPRPGSSVPEHSPRTTGLGCRLHSAPNLSDFHVVRPKLPKPPTDPLGATFSPPQTSAPQPCPGLQSCRPLRGSPKLPDFLQRSPLPPILGSPTKAGPSFDFPKTPSSQNLLTLLARQGVVMTPPRNRTLPDLSEASPFHGQQLGSGLRPAEDTRGPFGRSFSTSRITDLLLKAAFGTQASDSGSTDSLQEKPMEIAPSAGFGGTLHPGARGGGASSPAPVVFTVGSPPSGATPPQSTRTRMFSVGSSSSLGSTGSSSARHLVPGACGEAPELSAPGHCCSLADPLAANLEGAVTFEAPDLPEETLMEQEHTETLHSLRFTLAFAQQVLEIAALKGSASEAAGGPEYQLQESVVADQISQLSREWGFAEQLVLYLKVAELLSSGLQTAIDQIRAGKLCLSSTVKQVVRRLNELYKASVVSCQGLSLRLQRFFLDKQRLLDGIHGVTAERLILSHAVQMVQSAALDEMFQHREGCVPRYHKALLLLEGLQHTLTDQADIENIAKCKLCIERRLSALLSGVYA
